Test results as given in PubChem BioAssay AID758 (NMMLSC, 2007).
In all, about 190,000 compounds went through this assay and about 110 (0.058%) were called active. The shares of active, inactive and inconclusive entries below differ from those in the screen.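 How the source made its calls: active means fluorescent GTP binding to Rab7 beads changed by at least 20 points from the 100% baseline, either direction, mostly lower; inconclusive means compound itself probably fluorescent, or too few beads counted; inactive means the rest.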

test system: Rab7 GTPase wild type (dog), Bodipy-FL-GTP binding; test: modulators of GTP binding to Rab7, primary screen, biochemical, wildtype, multiplex bead flow cytometry (AID 758); conditions: GST-Rab7 beads, fluorescent GTP binding, at 10 µM, actives lie on both sides, untreated = 100%, excess cold GTP = 0%;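 further: median green fluorescence of bound Bodipy-FL-GTP per Rab7 bead population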

| SMILES | GTP binding activity (percent of control) |
| --- | --- |
| CN(C)c1ccnc2sc(C(=O)NCc3ccccc3)c(N)c12 | inconclusive: 91% |
| Cc1ccc(C2CC(c3cccs3)n3nc(N)nc3N2)cc1 (stereo not drawn) | inactive: 99% |
| CCN(CC)C(=O)/C=C/c1ccc(OC)c(S(=O)(=O)N2CCCCC2)c1 | inactive: 100% |
| Cc1cc2ncn(CCC(=O)NC3CCCC3)c2cc1C | inactive: 106% |
| COc1ccc(OC)c(NS(=O)(=O)Cc2ccccc2)c1 | inconclusive: 84% |
| COc1cc(-n2cnnn2)ccc1S(=O)(=O)N1CCOCC1 | inconclusive: 103% |
| CCOC(=O)C1=C(C)NC(=O)CC1c1cc(OC)c(OC)cc1Br (stereo not drawn) | inactive: 95% |
| COc1ccc(S(=O)(=O)N2CCN(C(=O)c3cccc(Cl)c3)CC2)cc1 | inconclusive: 103% |
| C[C@H](C(=O)C=[N+]=[N-])N1C(=O)c2ccccc2C1=O | inconclusive: 101% |
| COc1ccc(/C=N/NC(=S)Nc2cccc(C(=O)O)c2)cc1 | inconclusive: 93% |
| O=C1C(C=NCc2ccncc2)=C(O)c2ccccc21 | inconclusive: 104% |
| CCSc1nc2ccccc2c(=O)n1Cc1ccc(F)cc1 | inactive: 96% |
| Cc1ccccc1CSc1nc(-c2ccccc2)cc(=O)[nH]1 | inactive: 100% |
| COc1ccc(CNC(=O)CN2C(=O)C3C4C=CC(C4)C3C2=O)cc1 (stereo not drawn) | inactive: 92% |
| CC(C)CC(=O)Nc1ccc(C(=O)Nc2cccc(O)c2)cc1 | inconclusive: 94% |
| CCCCOc1ccc(-c2nnn(CC(=O)c3c[nH]c4ccccc34)n2)cc1 | inconclusive: 102% |
| CN(C)c1ccc(/C=c2/sc3n(c2=O)NC2(c4ccccc4)N(C)C(=O)N(C)C2(c2ccccc2)N=3)cc1 (stereo not drawn) | inactive: 96% |
| O=C1NC2(CCCCC2)N=C1c1ccccc1 | inconclusive: 108% |
| COc1ccc(CNc2nc3ccccc3n2Cc2ccccc2)cc1OC | inconclusive: 99% |
| O=C(Cn1cc(C(F)(F)F)ccc1=O)N1CCN(S(=O)(=O)c2ccccc2)CC1 | inconclusive: 101% |

| SMILES | GTP binding activity (percent of control) |
| --- | --- |
| COc1ccc(OC)c(Nc2nc(N)nc(-c3cc4ccccc4o3)n2)c1 | inconclusive: 96% |
| CC(=O)NN1C(=O)/C(=C/c2ccc(C(C)C)cc2)SC1=S | inactive: 99% |
| O=C1C2C3C=CC(C3)C2C(=O)N1CCN1CCN(Cc2ccc([N+](=O)[O-])cc2)CC1 (stereo not drawn) | inactive: 104% |
| Oc1[nH]c2ccccc2c1/C=N/c1nccs1 | inconclusive: 94% |
| Cc1ccc(NC(=O)/C(=C/c2cccc([N+](=O)[O-])c2)NC(=O)C2CCCCC2)cc1 | inconclusive: 89% |
| CCCCOC(=O)c1ccc(NC(=S)NC(=O)c2c(Br)c(C)nn2C)cc1 | inconclusive: 93% |
| O=C(COC(=O)Cc1ccc(S(=O)(=O)N2CCCCC2)s1)Nc1ccc2c(c1)OCO2 | inactive: 99% |
| Nc1nc(-c2ccc3c(c2)CCC(=O)N3)cs1 | inconclusive: 94% |
| CC(C)(C)C(=O)/C=c1\s/c(=C\c2ccc(-c3ccc([N+](=O)[O-])cc3)o2)c(=O)n1CC(=O)NC(N)=O | inconclusive: 163% |
| CCC(CC)C(=O)NCc1ccc(Cl)cc1 | inactive: 96% |
| CC(C)(C)C1=Nn2c(nnc2-c2n[nH]c3c2CCC3)SC1 | inconclusive: 96% |
| Cc1ccc(NC(=O)Cc2ccc(Cl)c(Cl)c2)cc1S(=O)(=O)N(C)C | inconclusive: 102% |
| COCCCNCC(=O)Nc1sc(C)c(C)c1C(=O)OC | inconclusive: 106% |
| CC(=O)[C@@H]1[C@@H]2C(=O)N(c3ccc(F)c(Cl)c3)C(=O)[C@@H]2C2c3ccccc3C=CN21 (stereo partly drawn) | inconclusive: 105% |
| CCC(C)c1ccccc1NC(=O)CN1CCN(C/C=C/c2ccccc2)CC1 (stereo not drawn) | inconclusive: 102% |
| CCOC(=O)C1=C(CC)Nc2ccccc2N=C1N | inconclusive: 93% |
| Cc1ccc(Nc2nc(N)nc(CSc3nncn3C)n2)cc1 | inconclusive: 97% |
| Cc1cc(NC(=O)COc2ccccc2)n(-c2ccccc2)n1 | inconclusive: 103% |
| Cn1ccnc1Sc1nc(Nc2cccc(Cl)c2)nc(N2CCOCC2)n1 | inconclusive: 103% |
| COc1ccc2cc(CN(CCO)C(=O)c3ccccc3F)c(=O)[nH]c2c1 | inconclusive: 102% |

| SMILES | GTP binding activity (percent of control) |
| --- | --- |
| CC(C)(C)c1ccc(Oc2ccc(N)cc2)cc1 | inconclusive: 95% |
| O=C1CCC(/C=C/c2ccccc2)=NN1Cc1ccc(F)cc1 | inconclusive: 95% |
| Cc1ccc(CNc2oc(-c3ccco3)nc2S(=O)(=O)c2ccccc2)cc1 | inactive: 97% |
| CSc1ccc(/C=C(/NC(=O)c2ccc(C)cc2)C(=O)Nc2cccc(F)c2)cc1 | inactive: 102% |
| O=C(NCc1ccccn1)c1cc(-n2cnnc2)ccc1Cl | inactive: 102% |
| COC(=O)c1ccc(-c2ccc(/C=N/NC(=O)CC3(C)OCCCO3)o2)cc1 | inconclusive: 95% |
| COc1ccc(CN2CCN(C(=O)C3CCC(CNS(=O)(=O)c4ccc(C)cc4)CC3)CC2)c(OC)c1OC (stereo not drawn) | inactive: 104% |
| Cc1cc(NC(=O)CSc2nnc(N)s2)c([N+](=O)[O-])cc1C | inconclusive: 93% |
| Cc1ccc(C)c(OCC(=O)N2CCOCC2)c1 | inactive: 103% |
| COc1ccc(Cn2c(=O)c3c(nc(NCCO)n3C)n(C)c2=O)cc1 | inconclusive: 89% |
| CCn1cc([N+](=O)[O-])c(C(=O)Nc2ccn(Cc3ccccc3)n2)n1 | inconclusive: 100% |
| Cc1ccc(NC(=O)[C@@H](NC(=O)c2cccc(S(=O)(=O)N3CCOCC3)c2)C(C)C)cc1C | inactive: 103% |
| Cc1ccc2c(c1)SC1=NC(c3ccccc3)(C(F)(F)F)NC(=O)N12 (stereo not drawn) | inconclusive: 94% |
| COC(=O)c1ccc(C2C(Oc3ccc(OC)cc3)C(=O)N2CCc2ccc(OC)c(OC)c2)cc1 (stereo not drawn) | inconclusive: 101% |
| CC1CCN(S(=O)(=O)N2CCC(C(=O)NCCN3CCOCC3)CC2)CC1 | inconclusive: 90% |
| O=C(NCc1ccco1)c1ccc(-c2ccccc2Cl)o1 | inconclusive: 89% |
| CCC(c1nnnn1CS(=O)(=O)c1ccc(C)cc1)N1CCN(c2nc3ccccc3s2)CC1 (stereo not drawn) | inconclusive: 100% |
| COC(=O)C1C(=O)C2=C(CC1C)NC(=O)CC2c1ccc(O)c(OC)c1 (stereo not drawn) | inactive: 103% |

Some values from the entries so far.
COc1ccc(CN2CCN(C(=O)C3CCC(CNS(=O)(=O)c4ccc(C)cc4)CC3)CC2)c(OC)c1OC (stereo not drawn) – GTP binding activity (percent of control): inactive: 104%
CSc1ccc(/C=C(/NC(=O)c2ccc(C)cc2)C(=O)Nc2cccc(F)c2)cc1 – GTP binding activity (percent of control): inactive: 102%
